Some of the results follow.

This passage reports binding signal results from article PMC7819943, “Rice protein-binding microarrays: a tool to detect cis-acting elements near promoter regions in rice”.

The assay concerns the target T1, OsSMF1 (Oryza sativa, UniProt Q6ZLB0 1-436).
T1 sequence: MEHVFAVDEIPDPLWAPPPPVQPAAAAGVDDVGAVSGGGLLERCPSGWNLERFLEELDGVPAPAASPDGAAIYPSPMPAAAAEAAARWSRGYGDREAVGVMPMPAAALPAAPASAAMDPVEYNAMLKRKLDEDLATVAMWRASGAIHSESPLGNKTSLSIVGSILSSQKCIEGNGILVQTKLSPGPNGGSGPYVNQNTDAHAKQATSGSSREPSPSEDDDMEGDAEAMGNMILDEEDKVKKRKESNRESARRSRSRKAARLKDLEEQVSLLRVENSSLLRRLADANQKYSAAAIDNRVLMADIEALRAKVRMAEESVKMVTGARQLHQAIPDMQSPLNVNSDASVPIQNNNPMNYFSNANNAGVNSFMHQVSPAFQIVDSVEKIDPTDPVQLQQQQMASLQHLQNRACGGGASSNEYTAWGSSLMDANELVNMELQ
Nature of the assay: protein-binding microarray (RPBM); PBS, 2% BSA, 51.3 ng/ul salmon testes DNA, 50 uM zinc acetate, 200 nM TF, 25 C, 1 h; high values mean tight binding. The following applies: protein: recombinant; tags: N-terminal polyhistidine and DsRed monomer fusion (pET32a); chain copies: 2; label: CyDye5-dUTP incorporated in the synthesized complementary strand; 3' TTTTT single-stranded linker to array surface; dsDNA, one strand shown. The essentials:
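Ni–NTA purification followed expression in E. coli BL21-CodonPlus of transcription factors fused N-terminally to a polyhistidine tag and DsRed. At 200 nM in PBS with 2% BSA, salmon testes DNA and 50 µM zinc acetate, the protein was incubated for 1 h at 25 °C with a custom Agilent array that had been primer-extended with Cy5-dUTP and blocked with 2% BSA. After washing, the array was read on an Axon 4000B scanner. The binding signal is per-feature fluorescence intensity in arbitrary units.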
With “GGCCGGGCCTAGGACCCAGTCGGGCGCACGCGCGCGACACCGGAGTCACCTAGTGCAG”, the binding signal is 16300 fluorescence intensity (a.u.).

As to “CTCTTCTTCTCCGGCACCGGCGACAGGGAAGACAGCTGCGCGGAGTCACCTAGTGCAG”, the binding signal was 34700 fluorescence intensity (a.u.).

As to “TGTGACCCTGGTGACACTAGTGTCATCATTGGCAAGCCCCCGGAGTCACCTAGTGCAG”, the binding signal is 5660 fluorescence intensity (a.u.).

As to “CACAAGATGTCTGAAAATTTGCACGTGTGTTGTGGCTCTGCGGAGTCACCTAGTGCAG”, the binding signal is 3720 fluorescence intensity (a.u.).

Consider “AATTTCACCAGGAGATGAGTCTGCTGACTGTTCGGAAGAACGGAGTCACCTAGTGCAG”, for which the binding signal is 4060 fluorescence intensity (a.u.).

Take “AGAAAGCCTAATGTACGGCGCCATGGAATTTCAATTGCGTCGGAGTCACCTAGTGCAG”: the binding signal is 3700 fluorescence intensity (a.u.).

“CTATGTATATAGTTGCTTAATTGACTTGTCATTAGTATGACGGAGTCACCTAGTGCAG”: the binding signal is 3330 fluorescence intensity (a.u.).

“TCTACGACACGGACAACATCATCAAGCGCTACACCTACGACGGAGTCACCTAGTGCAG”: the binding signal is 4370 fluorescence intensity (a.u.).

As to “GCATCCGTAACACCAAGGTCAGCTACCACACCTTGGCCTACGGAGTCACCTAGTGCAG”, the binding signal is 20800 fluorescence intensity (a.u.).

For the sequence “CGCCGCCACAACCGCGCGCCGTCACCGCCGCGTGCCGTCACGGAGTCACCTAGTGCAG”, the binding signal was 5070 fluorescence intensity (a.u.).

As to “CACCCCTAAGTGTGAGTGTGTATTTGTAACCCAAAAGTCACGGAGTCACCTAGTGCAG”, the binding signal is 35600 fluorescence intensity (a.u.).

On to “GCTTCCACGTCGCGCTTGCCAGCCATGAGCCTTTGTGTCACGGAGTCACCTAGTGCAG”, for which the binding signal is 4090 fluorescence intensity (a.u.).

For the sequence “TGCCCGCGAAATTTGACCGTTGCTGCGCCACGTCACGCTCCGGAGTCACCTAGTGCAG”, the binding signal was 30800 fluorescence intensity (a.u.).

Take “ATTCGCAAAGGAAACGTGCCGCATGCATGCCAAAGCCATCCGGAGTCACCTAGTGCAG”: the binding signal is 3620 fluorescence intensity (a.u.).

With “AATCCTGGATACGGTAGATCACTGGGAGGCGTAGACGAAGCGGAGTCACCTAGTGCAG”, the binding signal was 3450 fluorescence intensity (a.u.).

Take “AGGGGATTAATCTGGCTGGAGTGCACATGACGCTGCACATCGGAGTCACCTAGTGCAG”: the binding signal was 4590 fluorescence intensity (a.u.).

On to “GATATCTGCATTATTCTGTGATGCAGTTTTGGTTGGCTTGCGGAGTCACCTAGTGCAG”, for which the binding signal is 30200 fluorescence intensity (a.u.).

Regarding “ACTATCAAGTTCGGATTAACCGAACCAATACAACCACTCACGGAGTCACCTAGTGCAG”, the binding signal is 21900 fluorescence intensity (a.u.).

In the case of “TAGCATAGCCAACTGCTGACTCCAAATTATCTATAGTCAACGGAGTCACCTAGTGCAG”, the binding signal was 3850 fluorescence intensity (a.u.).

In the case of “ATCGCCACCTCTTTTGTTGCCAAAACAAAGCTTTTGCCCACGGAGTCACCTAGTGCAG”, the binding signal was 3550 fluorescence intensity (a.u.).

For the sequence “CACCGCCCATGGCCAACAACGTCATGAGGCGCCATGGTGGCGGAGTCACCTAGTGCAG”, the binding signal is 4060 fluorescence intensity (a.u.).

Turning to “ATCGCACGTTGACTCAGCCGCCACATCGGATAAATCGGGTCGGAGTCACCTAGTGCAG”, the binding signal is 15700 fluorescence intensity (a.u.).

With “GCGCACGGTGCCACGACGGCAGCCCAAGACCTGAGTGCCCCGGAGTCACCTAGTGCAG”, the binding signal was 5710 fluorescence intensity (a.u.).

“GAGATTTGTTTGATGTATCAGGGTGTCACGTTGTCATGTTCGGAGTCACCTAGTGCAG”: the binding signal is 4970 fluorescence intensity (a.u.).

As for “TCTCTGATTCTTTCTTGCTGACAAACACAATCCATCAAAGCGGAGTCACCTAGTGCAG”, the binding signal was 3520 fluorescence intensity (a.u.).

Turning to “CCCTCGCCCAGACGCCACCGCCGCAACGCGTTGCTGCGTGCGGAGTCACCTAGTGCAG”, the binding signal is 3350 fluorescence intensity (a.u.).

For the sequence “TTCGTCCCCACGTGGTTTTCTGCCCGACTACTCCTACAGCCGGAGTCACCTAGTGCAG”, the binding signal was 4490 fluorescence intensity (a.u.).

For “ACATCCTACTCATGACACACTCATGCATGCCACCTCATCCCGGAGTCACCTAGTGCAG”, the binding signal is 10800 fluorescence intensity (a.u.).

Consider “AACAAAAGGGAAGGAGTAGGCCGGAAACGTCCTACGGAAACGGAGTCACCTAGTGCAG”, for which the binding signal is 35400 fluorescence intensity (a.u.).

As for “CGCTAATCGCGGTGTTAATCCGGCACTAATCGCAATCGCACGGAGTCACCTAGTGCAG”, the binding signal was 3250 fluorescence intensity (a.u.).

Consider “TCAAATCAAATTGCCACGTAAGCGCCACGTCACTGCCACACGGAGTCACCTAGTGCAG”, for which the binding signal is 35200 fluorescence intensity (a.u.).

Regarding “ACCCGTCGACGTACCTTAGATCACACCCCTCATCATCACTCGGAGTCACCTAGTGCAG”, the binding signal was 3330 fluorescence intensity (a.u.).

For the sequence “TCAGCTGGTATTAACACACGATGTGTCTCTTTTACTGCCACGGAGTCACCTAGTGCAG”, the binding signal was 3830 fluorescence intensity (a.u.).

Regarding “GCTGGCCCATCTCCTTGCCCACCCATGGGCCTGAAAGCCGCGGAGTCACCTAGTGCAG”, the binding signal is 49900 fluorescence intensity (a.u.).

Take “CGATTTTATCATTTATCATTCATCAGTCACACGACCTTCACGGAGTCACCTAGTGCAG”: the binding signal is 3480 fluorescence intensity (a.u.).

As to “ATCTCAAACCGGGCATATGAACCCTATGACTAATGTGATTCGGAGTCACCTAGTGCAG”, the binding signal was 3550 fluorescence intensity (a.u.).

Consider “CAAACACAGCAGATAGATAATACAGGGCCCGCGACGTGGGCGGAGTCACCTAGTGCAG”, for which the binding signal was 3180 fluorescence intensity (a.u.).

For “CGCCAATAGCTCGCCGCCGTCGAAACCCAAAATCTTCTCTCGGAGTCACCTAGTGCAG”, the binding signal is 3420 fluorescence intensity (a.u.).

“GAGTGTAGGACTTCAGTCCTATGTAATTTTCTTCCACGAGCGGAGTCACCTAGTGCAG”: the binding signal is 3220 fluorescence intensity (a.u.).

As for “CCCAACGCCGGGCAGGACCCCAGCTACGTGGCAGCGCTGGCGGAGTCACCTAGTGCAG”, the binding signal is 8800 fluorescence intensity (a.u.).

With “TCGGCTTAAATCCACATAGCCACGAGAGATGGTCCGCTGTCGGAGTCACCTAGTGCAG”, the binding signal is 3140 fluorescence intensity (a.u.).

“AACGTGCCGAGGTGGCAGCCCAAGCACGACATGGCTGTTACGGAGTCACCTAGTGCAG”: the binding signal is 3360 fluorescence intensity (a.u.).
